The target of test [1] is human PD-L1 on CHOS cells overexpressing PD-L1 (CHOS-PD-L1) (human) (UniProt Q9NZQ7). The test is described as follows: FACS on CHOS-PD-L1 cells.
Test [2] shares this target. Description: FACS on CHOS-PD-L1 cells, detection with PE-conjugated anti-human Fc antibody.

Sequences of proteins named here, by UniProt entry; tags and fusion partners are left off. Residues count along the entry.
UniProt Q9NZQ7, residues 19-290: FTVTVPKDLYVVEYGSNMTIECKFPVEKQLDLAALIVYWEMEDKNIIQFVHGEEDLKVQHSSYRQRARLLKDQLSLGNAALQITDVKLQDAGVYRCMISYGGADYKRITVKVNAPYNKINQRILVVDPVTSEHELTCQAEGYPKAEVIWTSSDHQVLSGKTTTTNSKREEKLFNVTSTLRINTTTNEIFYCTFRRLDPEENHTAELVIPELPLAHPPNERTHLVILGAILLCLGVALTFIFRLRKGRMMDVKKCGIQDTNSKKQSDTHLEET

No constants are given. Whether binding was seen depends on the method and setting. Some entries that bind do so weakly or less than the wild type. Where a sequence is shown, tags or fusion partners need not be part of it.

B1: anti-PD-L1 humanized Nb-Fc antibody (Fc fusion)
chain: QVQLQESGGGLVQPGGSLRLSCAASAYTISRNSMGWFRQAPGKGLEGVAAIESDGSTSYSDSVKGRFTISLDNSKNTLYLEMNSLRAEDTAVYYCAAPKVGLGPRTALGHLAFMTLPALNYWGQGTLVTVSS
notes: The VHH is inferred from the words 'parent antibody' / 'parental anti-PD-L1 antibody'; also called anti-humanized Nb-Fc; parental anti-PD-L1 antibody; not shown: the antibody was obtained according to ZL201710657665.3
Turning to B1, the binding result in test [1] and in test [2] was “binds” throughout.

(Values after patent publication US20220112284A1 (Innovent, published 2022).)
